Assay results taken from patent US11603352 (University of California, dated 2023).
Results are given in words; binding and its absence hold for the method and conditions named. Some results given as binding are weak or reduced against the parent protein; the word gives no strength.

By UniProt entry, the sequences of proteins in these tests, tags left out.
UniProt Q13098: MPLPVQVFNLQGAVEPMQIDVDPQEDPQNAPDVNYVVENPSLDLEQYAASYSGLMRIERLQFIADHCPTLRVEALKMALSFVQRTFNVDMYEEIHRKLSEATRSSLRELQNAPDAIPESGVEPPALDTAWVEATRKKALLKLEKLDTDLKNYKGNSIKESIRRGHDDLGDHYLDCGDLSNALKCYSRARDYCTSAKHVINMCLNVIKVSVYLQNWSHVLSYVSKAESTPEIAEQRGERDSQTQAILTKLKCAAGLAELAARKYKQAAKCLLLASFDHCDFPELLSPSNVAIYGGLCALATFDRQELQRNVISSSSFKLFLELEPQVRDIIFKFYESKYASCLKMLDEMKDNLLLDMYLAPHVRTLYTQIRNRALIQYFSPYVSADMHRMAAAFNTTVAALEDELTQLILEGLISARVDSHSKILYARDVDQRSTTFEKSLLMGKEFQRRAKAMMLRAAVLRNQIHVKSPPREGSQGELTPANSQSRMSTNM
UniProt P61201: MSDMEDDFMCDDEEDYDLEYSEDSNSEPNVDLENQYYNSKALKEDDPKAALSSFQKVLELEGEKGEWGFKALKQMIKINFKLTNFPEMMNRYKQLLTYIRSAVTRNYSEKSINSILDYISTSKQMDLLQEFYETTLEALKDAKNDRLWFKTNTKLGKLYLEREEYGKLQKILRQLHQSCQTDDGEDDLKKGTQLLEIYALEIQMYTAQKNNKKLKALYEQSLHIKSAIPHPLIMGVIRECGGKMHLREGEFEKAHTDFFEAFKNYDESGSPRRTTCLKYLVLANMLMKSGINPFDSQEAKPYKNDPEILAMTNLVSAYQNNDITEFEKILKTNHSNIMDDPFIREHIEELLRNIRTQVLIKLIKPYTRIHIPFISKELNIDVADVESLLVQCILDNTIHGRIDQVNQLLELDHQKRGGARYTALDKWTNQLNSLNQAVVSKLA
UniProt Q92905: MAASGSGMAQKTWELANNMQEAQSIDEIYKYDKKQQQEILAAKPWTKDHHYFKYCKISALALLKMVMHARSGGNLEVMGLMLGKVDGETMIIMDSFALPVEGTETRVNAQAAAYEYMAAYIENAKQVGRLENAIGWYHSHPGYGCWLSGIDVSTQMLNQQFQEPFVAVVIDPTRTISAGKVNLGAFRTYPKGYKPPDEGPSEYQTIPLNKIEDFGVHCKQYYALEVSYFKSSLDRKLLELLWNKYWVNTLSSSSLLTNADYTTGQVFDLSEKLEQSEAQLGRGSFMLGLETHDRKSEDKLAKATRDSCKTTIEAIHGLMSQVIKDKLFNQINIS

How the values were obtained:
[1] = biological target: CSN1 (subunit 1 of the human COP9 signalosome) (human) (UniProt Q13098); assay: integrative structure of CSN from cross-links
[2] = biological target: CSN2 (subunit 2 of the human COP9 signalosome) (human) (UniProt P61201); assay: PRM quantitation of DHSO cross-links; increased CSN/CSNn ratio
[3] = biological target: CSN5 (subunit 5 of the human COP9 signalosome) (human) (UniProt Q92905); assay: as above

Row | binding [1] | binding [2] | binding [3] | Substance
1 | binds |  |  | CSN2 (subunit 2 of the human COP9 signalosome) (from UniProt P61201 1-443)
2 |  | binds | binds | CSN1 (subunit 1 of the human COP9 signalosome) (from UniProt Q13098 1-491)
